Measured values as given in PubChem BioAssay AID1347423 (Functional Genomics Laboratory (NCATS/FGL), 2020).
The campaign covered roughly 52,000 sequences. About 210 (0.4%) were called active.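 Rule for the calls: active = gene whose silencing raises cell survival under the drug, median off-target-corrected z-score across its silencing RNAs 2 or more; inactive = the rest.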 The list shows a part of the results.

Experiment: Resistance to Poly (ADP-Ribose) Polymerase inhibitor: Gene Identification via Genome-wide siRNA Screen
Conditions: mouse BRCA2 R2336H ES cells, olaparib, CellTiter-Glo viability; hits give high values
Procedure, shortened: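 Mouse BRCA2 R2336H ES cells were reverse-transfected with siRNA (20 nM final), treated at 48 h with 500 nM olaparib, and read by CellTiter-Glo after 72 h. Scores: MAD-based z per siRNA, median per gene, seed off-target correction.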

Sequence	z-score
GCAACAGGUUAGCGAAACCTT against Bid3	active: 0.43
GGCUCUCUGUCUGGAAAAGTT against Cspg2	inactive: -0.157
CCUUUUUUAUAUCCACUCATT against BC060615	inactive: 0.82
GGUGCCAUUGACAUUUAAUTT against Zcchc6	inactive: 0.417
GGAGCUGAAGCAAAGACAGTT against 2410005K17Rik	inactive: -2.36
GGACUUUCCAGUAAGGAAATT against Mapk8ip	inactive: -0.0305
GGCUUCAAACAUUUACUGGTT against 2010009L17Rik	inactive: 1.76
GGAAUGCUUAGUGAAAUUUTT against Elys	inactive: -0.57
GGUUUACAAGUUUCUAAGCTT against B230113M03Rik	inactive: 0.539
GGCUUCAUUUCUUGAUGAUTT against Cenpc1	inactive: -0.896
GCUAACAUUUUAAUGGCCCTT against Pnoc	inactive: 0.192
GGGAUCAAUUGAGUGUAAUTT against Slc16a10	inactive: 0.886
GGAGAAGAUUGUCAACAUUTT against Cyp1a2	inactive: 0.918
GGCCUGAGGACAUUGAAUATT against Nat5	inactive: 0.56
GGCCGAAGCAUCUUCAAGATT against BC037651	inactive: 0.251
GGCUAUGGAAACCACCACATT against Nrg3	inactive: -1.92
GGGAGGAAUUUGAUAAGAUTT against Cpsf5	inactive: 2.02
GGAAAGAUUGGAUUUGAAGTT against Zfp318	inactive: 0.103
CCUAUUCCUAACCACAAGATT against Ppap2c	inactive: -0.178
CGCGCUGGUACAAUCUCCUTT against BC037006	inactive: 0.659
CCCUAUUGAUUCAACUUGGTT against 4930542N07Rik	inactive: 2.88
CGUGAACAAUUACUGAGCCTT against Wars2	inactive: -0.337

Sequence	z-score
CCAUUUGAACAGUCCGUCUTT against 8030451K01Rik	inactive: 1.48
GCCCUUCGUGAUGAAGAAUTT against B4galt3	inactive: 0.149
CCCACCUGGCUUUUAUUGATT against Olfr1042	inactive: 0.31
GGCAAAUGUAAAGUUAGGUTT against Zfp191	inactive: 0.218
GGCUCCUCGGUUUAAAGGUTT against 4930550B20Rik	inactive: 0.889
GGAAUAUACGAGAAAACCUTT against Epha7	inactive: 2.71
CCACUAAUAGUCGUAGAAUTT against Dte	inactive: 0.736
GGAGCUCUCUAUUUAGUUATT against E130114P18Rik	inactive: 0.139
GGUCUACUUUAGACAACUUTT against Sdc1	inactive: 1.31
GGCAGAAAUUUGGAUACCATT against Plekha4	inactive: -1.03
GCCCUUCGCUUAAAGACCATT against Nrbf1	inactive: 0.0954
GGAAAAUUCUUCCAACAUCTT against Csdufd1	inactive: -0.471
GGGAGAAGAGGAACAGUUCTT against Slc25a17	inactive: -2.54
GCAAUUGAAAGUGAACAAUTT against Olfr1360	inactive: -1.58
GGAAGACCUUGUGUUUGCATT against Mmp13	inactive: -0.534
GGAACUUUCAGAAUCAAUGTT against Cdh13	inactive: -0.111
GGAAUACAUUCCUUUUAAGTT against Gpx3	inactive: -0.23
GAUCCUCUCUAGUACUUGATT against Ldoc1	inactive: 0.779
GGAUUUCAGCGAAGUGUACTT against Mapk11	inactive: 0.507
GGAUGCUUGUGAAUAUGCUTT against Olfr346	inactive: -0.285
GGACAGCUGUUUCAAUUCUTT against Il1rap	inactive: -1.38
GCGAUUAAUGGCAUAGUUUTT against Sara1	inactive: -1.04

Reformatted as comma-separated lines: part of the list above
Sequence,z-score
GGAAGACCUUGUGUUUGCATT against Mmp13,inactive: -0.534
GGAACUUUCAGAAUCAAUGTT against Cdh13,inactive: -0.111

Later entries

Sequence	z-score
GGUGGAAUAUAGCUUCAUCTT against Ifngr2	inactive: -0.8
GGUAAAUGAGUAGCUUAGUTT against 1300006M19Rik	inactive: 0.502
GCAUGUGAUUUCAGGUUGATT against Echdc1	inactive: -0.808
GGUCUUCUCCGAAAGUGAATT against B230106I24Rik	inactive: -0.271
GCUGCAUUACAAGCCCAACTT against 0610030H11Rik	inactive: -0.157
GGCGCAUUAGCAGAGACUGTT against Mrps5	inactive: -0.832
GCGAGCUGUACCUUUCUAGTT against Lmo3	inactive: -2.72
GGACAUAGUCCUUUUUGUUTT against Myod1	inactive: -0.501
GGAUUUCCCAUCAAAGACGTT against Serpinf2	inactive: 0.799
CCCUGAUUGGACUGAACUCTT against Olfr145	inactive: 1.05
GGGAGCAGAUUGAAACAGUTT against 4933424N09Rik	inactive: 0.495
CCCUUGUUGUUUAUCCUCATT against Ly6f	inactive: -0.869
GGACAAUGACCAGUUGAACTT against Prrx1	inactive: 0.557
CCUCAAGGCAGUUCAUAUUTT against 6330581L23Rik	inactive: 0.313
GGAGCUCCUGUACGACUAUTT against 2410195B05Rik	inactive: -1.33
GCAGAAAUGUCCAUCCAAATT against Sprr2k	inactive: 0.585
GGAGUUUGUGUUGUCAGUGTT against Kcng3	inactive: 2.16
GUGGCUGACAAGUUUAUCATT against Cyp2c66	inactive: 0.843
GCAGCAGUUGGCUAAAACATT against 2900006K08Rik	inactive: 0.163
GGAAUUUUAUCAUUGGGACTT against 5031404N07	inactive: -0.078
GCUGCAUUGGUUGAAUGUGTT against Slc22a1	inactive: -1.56
GCAUAUAUCUGUGGAGUGUTT against Olfr1502	inactive: 0.762
